Test results as given in patent US6512161.
Results are given in words; binding and its absence hold for the method and conditions named. Some entries that bind do so weakly or less than the wild type.

The chains behind the UniProt entries cited, without tags or fusion partners. Residues count along the entry.
UniProt P04114, residues 28-4563: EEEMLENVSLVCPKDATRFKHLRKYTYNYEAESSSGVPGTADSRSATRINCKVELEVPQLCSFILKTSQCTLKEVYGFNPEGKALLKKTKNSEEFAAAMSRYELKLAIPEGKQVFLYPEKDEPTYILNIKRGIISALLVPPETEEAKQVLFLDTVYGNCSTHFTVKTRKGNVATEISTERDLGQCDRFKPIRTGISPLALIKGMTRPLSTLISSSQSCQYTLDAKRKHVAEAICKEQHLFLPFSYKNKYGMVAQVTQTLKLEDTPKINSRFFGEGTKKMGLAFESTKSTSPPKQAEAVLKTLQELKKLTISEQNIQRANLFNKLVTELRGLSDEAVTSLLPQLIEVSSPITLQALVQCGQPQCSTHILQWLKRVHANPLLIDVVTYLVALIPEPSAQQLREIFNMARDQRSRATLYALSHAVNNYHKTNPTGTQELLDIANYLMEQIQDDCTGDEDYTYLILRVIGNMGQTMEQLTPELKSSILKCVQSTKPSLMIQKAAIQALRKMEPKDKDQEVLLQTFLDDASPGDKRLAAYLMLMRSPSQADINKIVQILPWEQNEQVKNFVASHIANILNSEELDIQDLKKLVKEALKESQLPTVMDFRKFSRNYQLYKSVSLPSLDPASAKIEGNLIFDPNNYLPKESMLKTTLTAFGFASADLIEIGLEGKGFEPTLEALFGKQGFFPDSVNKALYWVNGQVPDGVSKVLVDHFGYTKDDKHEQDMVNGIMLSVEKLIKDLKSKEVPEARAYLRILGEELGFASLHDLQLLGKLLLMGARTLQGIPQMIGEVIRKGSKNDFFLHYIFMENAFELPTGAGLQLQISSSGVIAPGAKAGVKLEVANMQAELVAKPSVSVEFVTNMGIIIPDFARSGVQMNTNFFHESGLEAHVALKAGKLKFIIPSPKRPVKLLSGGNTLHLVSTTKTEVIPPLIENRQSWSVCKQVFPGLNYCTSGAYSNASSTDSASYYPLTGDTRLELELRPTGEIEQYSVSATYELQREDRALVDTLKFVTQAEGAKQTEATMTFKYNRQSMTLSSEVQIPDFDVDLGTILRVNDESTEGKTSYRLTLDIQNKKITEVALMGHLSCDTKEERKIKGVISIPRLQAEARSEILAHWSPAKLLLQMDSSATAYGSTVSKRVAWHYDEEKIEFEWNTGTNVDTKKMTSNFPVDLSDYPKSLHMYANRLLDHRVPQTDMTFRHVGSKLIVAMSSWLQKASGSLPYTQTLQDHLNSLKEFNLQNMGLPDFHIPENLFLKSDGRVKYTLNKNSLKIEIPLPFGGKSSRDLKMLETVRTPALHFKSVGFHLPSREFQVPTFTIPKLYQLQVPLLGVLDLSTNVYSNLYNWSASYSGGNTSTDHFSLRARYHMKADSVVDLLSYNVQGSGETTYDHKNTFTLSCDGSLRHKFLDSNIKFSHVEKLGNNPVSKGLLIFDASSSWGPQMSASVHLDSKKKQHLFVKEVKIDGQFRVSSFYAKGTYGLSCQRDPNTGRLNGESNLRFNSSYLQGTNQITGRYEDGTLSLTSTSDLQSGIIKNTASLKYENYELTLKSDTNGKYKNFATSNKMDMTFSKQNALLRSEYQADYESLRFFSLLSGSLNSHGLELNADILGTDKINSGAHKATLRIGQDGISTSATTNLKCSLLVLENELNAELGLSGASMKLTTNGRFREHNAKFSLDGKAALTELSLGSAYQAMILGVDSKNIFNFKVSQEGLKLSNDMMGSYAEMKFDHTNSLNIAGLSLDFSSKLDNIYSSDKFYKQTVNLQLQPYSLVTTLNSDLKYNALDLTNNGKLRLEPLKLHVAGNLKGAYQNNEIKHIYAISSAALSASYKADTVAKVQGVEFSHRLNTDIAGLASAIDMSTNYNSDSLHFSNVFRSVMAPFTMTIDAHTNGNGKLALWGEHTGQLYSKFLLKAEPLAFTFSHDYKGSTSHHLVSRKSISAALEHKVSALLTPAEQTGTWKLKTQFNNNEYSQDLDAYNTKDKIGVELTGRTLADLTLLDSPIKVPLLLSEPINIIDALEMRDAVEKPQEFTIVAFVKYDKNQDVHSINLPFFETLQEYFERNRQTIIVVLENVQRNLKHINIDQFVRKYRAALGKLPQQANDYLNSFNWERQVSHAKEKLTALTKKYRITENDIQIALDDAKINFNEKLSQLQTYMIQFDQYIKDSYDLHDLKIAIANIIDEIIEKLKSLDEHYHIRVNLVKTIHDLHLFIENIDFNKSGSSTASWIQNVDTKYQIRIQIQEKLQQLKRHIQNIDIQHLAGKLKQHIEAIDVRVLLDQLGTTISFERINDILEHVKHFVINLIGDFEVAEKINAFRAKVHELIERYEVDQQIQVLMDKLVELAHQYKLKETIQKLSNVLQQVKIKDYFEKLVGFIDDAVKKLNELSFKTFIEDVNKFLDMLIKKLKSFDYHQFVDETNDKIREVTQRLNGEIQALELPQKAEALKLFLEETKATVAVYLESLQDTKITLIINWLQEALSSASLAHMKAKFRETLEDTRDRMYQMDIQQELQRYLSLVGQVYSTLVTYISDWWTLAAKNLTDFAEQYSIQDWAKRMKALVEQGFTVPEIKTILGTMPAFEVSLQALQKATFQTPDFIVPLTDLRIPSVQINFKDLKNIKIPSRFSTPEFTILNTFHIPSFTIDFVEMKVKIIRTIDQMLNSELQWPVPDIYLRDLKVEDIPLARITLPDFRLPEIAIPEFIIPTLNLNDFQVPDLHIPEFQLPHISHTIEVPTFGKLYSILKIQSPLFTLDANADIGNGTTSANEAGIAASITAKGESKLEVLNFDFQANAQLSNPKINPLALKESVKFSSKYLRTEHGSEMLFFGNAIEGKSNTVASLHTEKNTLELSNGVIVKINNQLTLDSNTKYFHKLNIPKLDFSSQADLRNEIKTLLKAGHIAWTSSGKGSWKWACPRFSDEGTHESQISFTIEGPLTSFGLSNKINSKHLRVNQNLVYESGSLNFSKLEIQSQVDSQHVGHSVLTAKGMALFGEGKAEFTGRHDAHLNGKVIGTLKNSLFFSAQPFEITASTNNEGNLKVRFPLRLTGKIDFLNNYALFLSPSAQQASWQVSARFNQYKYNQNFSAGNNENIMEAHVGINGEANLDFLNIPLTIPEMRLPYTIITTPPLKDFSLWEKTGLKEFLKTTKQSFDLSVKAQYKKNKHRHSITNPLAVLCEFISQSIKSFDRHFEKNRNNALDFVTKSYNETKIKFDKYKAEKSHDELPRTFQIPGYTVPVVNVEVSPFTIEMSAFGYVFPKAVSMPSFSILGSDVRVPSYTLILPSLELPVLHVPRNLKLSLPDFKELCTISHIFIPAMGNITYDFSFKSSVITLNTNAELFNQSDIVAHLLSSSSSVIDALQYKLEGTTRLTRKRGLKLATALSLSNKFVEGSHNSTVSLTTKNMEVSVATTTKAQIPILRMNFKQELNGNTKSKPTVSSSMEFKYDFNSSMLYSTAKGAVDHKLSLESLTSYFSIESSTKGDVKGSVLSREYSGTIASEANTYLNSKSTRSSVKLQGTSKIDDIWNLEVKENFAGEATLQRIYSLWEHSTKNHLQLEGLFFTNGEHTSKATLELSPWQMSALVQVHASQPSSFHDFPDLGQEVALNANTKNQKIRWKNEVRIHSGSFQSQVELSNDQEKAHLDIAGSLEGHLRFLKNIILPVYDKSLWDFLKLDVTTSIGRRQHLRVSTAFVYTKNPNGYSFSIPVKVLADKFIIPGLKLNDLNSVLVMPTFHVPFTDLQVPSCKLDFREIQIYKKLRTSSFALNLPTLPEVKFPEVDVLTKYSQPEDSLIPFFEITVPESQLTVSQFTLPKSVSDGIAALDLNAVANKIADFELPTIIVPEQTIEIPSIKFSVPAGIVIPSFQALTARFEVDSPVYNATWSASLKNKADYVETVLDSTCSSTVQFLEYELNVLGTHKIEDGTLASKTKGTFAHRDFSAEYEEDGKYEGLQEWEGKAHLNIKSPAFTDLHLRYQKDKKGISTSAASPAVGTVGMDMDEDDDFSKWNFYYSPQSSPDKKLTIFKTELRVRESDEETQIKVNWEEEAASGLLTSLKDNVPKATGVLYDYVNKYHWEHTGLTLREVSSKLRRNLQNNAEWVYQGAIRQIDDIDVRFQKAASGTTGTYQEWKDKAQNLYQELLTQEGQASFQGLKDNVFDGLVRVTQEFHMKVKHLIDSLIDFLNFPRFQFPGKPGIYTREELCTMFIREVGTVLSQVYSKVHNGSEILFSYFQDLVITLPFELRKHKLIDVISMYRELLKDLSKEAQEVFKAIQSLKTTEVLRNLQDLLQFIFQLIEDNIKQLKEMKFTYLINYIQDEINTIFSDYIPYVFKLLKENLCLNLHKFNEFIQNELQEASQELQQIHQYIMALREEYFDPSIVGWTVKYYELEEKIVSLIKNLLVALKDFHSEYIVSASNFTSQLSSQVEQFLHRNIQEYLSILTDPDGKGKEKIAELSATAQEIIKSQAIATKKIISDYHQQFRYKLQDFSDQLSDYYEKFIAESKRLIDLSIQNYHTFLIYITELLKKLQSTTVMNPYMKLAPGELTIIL
UniProt P08519, residues 20-2040: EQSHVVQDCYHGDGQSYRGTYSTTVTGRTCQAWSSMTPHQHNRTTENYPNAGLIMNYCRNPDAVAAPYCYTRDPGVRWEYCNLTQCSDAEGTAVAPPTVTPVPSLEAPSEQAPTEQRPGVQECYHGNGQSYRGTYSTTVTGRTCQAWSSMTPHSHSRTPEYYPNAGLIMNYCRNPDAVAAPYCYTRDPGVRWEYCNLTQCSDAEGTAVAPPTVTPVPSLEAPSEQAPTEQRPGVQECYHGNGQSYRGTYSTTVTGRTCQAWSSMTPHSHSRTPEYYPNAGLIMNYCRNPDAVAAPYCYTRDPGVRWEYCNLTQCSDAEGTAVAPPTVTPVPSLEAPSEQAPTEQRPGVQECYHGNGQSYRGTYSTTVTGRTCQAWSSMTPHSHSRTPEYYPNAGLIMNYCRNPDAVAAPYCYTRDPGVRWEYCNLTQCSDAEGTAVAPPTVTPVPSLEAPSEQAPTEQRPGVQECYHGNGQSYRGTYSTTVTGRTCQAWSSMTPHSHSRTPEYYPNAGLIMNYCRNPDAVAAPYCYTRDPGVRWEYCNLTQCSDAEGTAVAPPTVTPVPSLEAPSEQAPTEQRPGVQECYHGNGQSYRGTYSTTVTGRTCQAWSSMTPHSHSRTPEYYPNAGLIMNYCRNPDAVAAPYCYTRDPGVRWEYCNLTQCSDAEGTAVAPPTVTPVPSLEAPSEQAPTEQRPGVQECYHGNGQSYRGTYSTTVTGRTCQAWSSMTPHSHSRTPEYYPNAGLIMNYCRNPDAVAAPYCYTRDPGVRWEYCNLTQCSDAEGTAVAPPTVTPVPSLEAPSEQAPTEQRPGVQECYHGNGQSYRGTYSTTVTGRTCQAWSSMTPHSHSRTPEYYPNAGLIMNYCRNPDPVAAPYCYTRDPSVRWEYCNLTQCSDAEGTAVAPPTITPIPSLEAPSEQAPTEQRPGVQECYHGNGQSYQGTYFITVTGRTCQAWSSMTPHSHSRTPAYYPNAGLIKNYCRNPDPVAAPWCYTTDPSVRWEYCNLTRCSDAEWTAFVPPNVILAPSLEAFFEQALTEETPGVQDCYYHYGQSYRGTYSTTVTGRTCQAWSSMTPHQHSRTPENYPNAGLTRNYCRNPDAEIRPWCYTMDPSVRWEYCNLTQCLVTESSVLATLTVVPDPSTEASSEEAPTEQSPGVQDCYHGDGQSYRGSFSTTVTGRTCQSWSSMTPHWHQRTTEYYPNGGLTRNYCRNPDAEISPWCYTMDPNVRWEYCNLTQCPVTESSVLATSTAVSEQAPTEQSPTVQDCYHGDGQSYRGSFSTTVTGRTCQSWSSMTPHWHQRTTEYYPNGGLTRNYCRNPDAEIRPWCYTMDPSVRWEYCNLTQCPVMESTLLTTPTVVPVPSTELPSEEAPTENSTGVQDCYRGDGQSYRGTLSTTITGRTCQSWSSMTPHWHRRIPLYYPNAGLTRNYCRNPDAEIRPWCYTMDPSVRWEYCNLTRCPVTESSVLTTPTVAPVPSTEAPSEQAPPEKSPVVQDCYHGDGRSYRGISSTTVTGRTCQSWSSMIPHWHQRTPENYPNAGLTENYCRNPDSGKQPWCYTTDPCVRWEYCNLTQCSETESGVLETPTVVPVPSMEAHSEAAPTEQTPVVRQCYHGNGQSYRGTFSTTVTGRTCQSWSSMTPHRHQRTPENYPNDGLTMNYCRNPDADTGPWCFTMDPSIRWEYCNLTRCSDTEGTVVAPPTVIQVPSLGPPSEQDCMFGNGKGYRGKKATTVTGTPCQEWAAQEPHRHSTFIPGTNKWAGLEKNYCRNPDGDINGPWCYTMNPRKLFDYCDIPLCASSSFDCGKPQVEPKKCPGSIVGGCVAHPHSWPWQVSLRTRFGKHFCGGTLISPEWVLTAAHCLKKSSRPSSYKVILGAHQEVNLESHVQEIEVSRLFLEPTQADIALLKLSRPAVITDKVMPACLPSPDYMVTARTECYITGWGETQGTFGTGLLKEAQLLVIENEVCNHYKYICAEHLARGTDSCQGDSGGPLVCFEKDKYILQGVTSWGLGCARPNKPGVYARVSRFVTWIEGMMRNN

Legend:
[1] = biological target: human apolipoprotein B-100 (human) (UniProt P04114); assay: immunoblot and ultracentrifugation of apoB/apo(a) transgenic rabbit plasma
[2] = biological target: human apolipoprotein B-100 (human) (UniProt P04114); assay: Superose 6 gel filtration of plasma, non-reducing anti-apo(a) immunoblot of LDL fractions
[3] = biological target: human apolipoprotein B-100 (human) (UniProt P04114); assay: ultracentrifugation of lipoproteins, apo(a) ELISA of the lipoprotein fraction
[4] = biological target: human apolipoprotein B-100 (human) (UniProt P04114); assay: non-reducing SDS-PAGE and anti-apo(a) immunoblot of transgenic rabbit plasma

Measured: binding

human apolipoprotein(a) (from UniProt P08519 20-2040)
binds: all assays above
